# Reference: PubChem BioAssay AID504834 (National Center for Advancing Translational Sciences (NCATS), 2011)
# Screen size: about 320,000 compounds; about 22,000 (6.9%) were called active. This list was built around the results that the source calls inconclusive (neither active nor inactive); the mix of calls is not that of the screen. The call rests on the fitted dose curve; in most records, active means well fitted inhibition curve with a large enough effect; inconclusive means small, poorly fitted or top-dose-only effect, or another doubt; inactive means no such curve, though single readings can be large or run the other way. Where the call is inconclusive, the potency comes from a doubtful curve fit.
# Assay: Primary qHTS for delayed death inhibitors of the malarial parasite plastid, 96 hour incubation
# Conditions: P. falciparum luciferase reporter growth; series mostly up to 28.7 µM; activity change, negative = inhibition: at the top concentration
# Method in brief: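 Infected RBCs, 2% Hct / 0.05% parasitemia final; luciferase-reporter P. falciparum; cpd 96 h, 37 C, 5% CO2; luciferase detection reagent; luminescence.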
# On the % scale 0 is the no-effect control and ±100 the full control effect; potency means the concentration at half of the fitted maximal effect.
Structure (SMILES),Potency,"activity change, negative = inhibition"
CCOC(=O)CNC(=O)CSc1nnc(-c2ccccc2)n1Cc1ccco1,active: 11.7 µM,
CC(=O)C(=Nc1ccccc1Cl)NNc1ccc(Cl)cc1,active: 4.65 µM,
COCCN(C/C=C/c1ccccc1)C/C=C/c1ccccc1,"inconclusive: 18.5 µM [inhibitor, single point]",
COc1ccc(Cl)cc1N(CC(=O)Nc1ccccc1C(=O)N1CCOCC1)S(C)(=O)=O,,inactive: -0.826%
Cc1cccc(S(=O)(=O)N2CCN(Cc3ccc4c(c3)OCO4)CC2)c1,active: 0.738 µM,
Oc1ccccc1/C=N/n1c2ccccc2c2ccccc21,active: 2.62 µM,
[O-]/[N+](=C\c1ccccc1)[C@@H]1CCCC[C@@H]1/[N+]([O-])=C/c1ccccc1,,inactive: 30.3%
CCCc1nnc(NC(=O)C2CC(=O)N(CCc3ccc(F)cc3)C2)s1 (stereo not given),,inactive: 25.4%
Cc1cc(C)n(C(=O)/C(C#N)=N/Nc2cc(Cl)cc(Cl)c2)n1,"inconclusive: 9.28 µM [inhibitor, partial curve, poor fit]",
Cc1ccc(NC(=O)C2CCN(S(C)(=O)=O)CC2)cc1Cl,"inconclusive: 0.0041 µM [inhibitor, full curve, poor fit]",
CCNC(=S)N/N=C/c1cc(C)n(-c2ccc(Cl)cc2)c1C,"inconclusive: 9.28 µM [inhibitor, partial curve]",
CC1CCCC(C)N1C(=O)CSc1nnc(-c2ccco2)n1C (stereo not given),"inconclusive: 18.5 µM [inhibitor, single point]",
CCCc1cc(=O)n2nc(N3CCC(C(=O)N4CCN(c5ccc(OC)cc5)CC4)CC3)sc2n1,,inactive: -12%
O=C1Nc2ccccc2Oc2cc([N+](=O)[O-])ccc21,,inactive: 16.9%
O=C1N(Cc2cccc(Cl)c2)C[C@@H]2C[C@@H](c3ccccn3)N3CCC[C@@]123,"inconclusive: 13.1 µM [inhibitor, partial curve, poor fit]",
CC1CCCCN1C(=O)CSc1nnc(-c2ccccc2F)o1 (stereo not given),,inactive: 2.68%
COc1ccc(-c2ccc3nnc(SCC(=O)N4CCCC4)n3n2)cc1,"inconclusive: 20.8 µM [inhibitor, single point]",
CC(=O)N=C1C=CC(=CN(O)C(C)(C)Cc2ccccc2)C=C1,,inactive: 0%
O=C(COc1ccc2c3c(c(=O)oc2c1)CCC3)N1CCCC1,"inconclusive: 0.522 µM [inhibitor, full curve, poor fit]",
O=C(Nc1ccc2c(c1)OCCO2)c1cc(-c2ccccn2)nc2ccc(Br)cc12,"inconclusive: 4.15 µM [inhibitor, single point]",
COc1ccc(-c2csc(NC(=O)c3cc(-c4cccs4)nc4ccccc34)n2)c(OC)c1,"inconclusive: 2.33 µM [inhibitor, full curve, poor fit]",
CCN(CC)S(=O)(=O)c1ccc(NC(=O)c2ccc(OCC3CCCO3)cc2)cc1 (stereo not given),active: 9.28 µM,
O=C(NCCc1ccccc1)C1CC(=O)N(C2CCCCC2)C1 (stereo not given),active: 5.86 µM,

# In the list so far, 2 have a furan ring, fused or not:
Structure (SMILES),Potency,"activity change, negative = inhibition"
CCOC(=O)CNC(=O)CSc1nnc(-c2ccccc2)n1Cc1ccco1,active: 11.7 µM,
CC1CCCC(C)N1C(=O)CSc1nnc(-c2ccco2)n1C (stereo not given),"inconclusive: 18.5 µM [inhibitor, single point]",

# (list continues)

Structure (SMILES),Potency,"activity change, negative = inhibition"
CCCCc1nc2cc(C(=O)N3CCCCC3C(=O)OC)ccc2o1 (stereo not given),"inconclusive: 18.5 µM [inhibitor, single point]",
CCCCn1c(N)c(N(Cc2ccccc2OC)C(=O)C(C)Oc2ccc(Cl)cc2)c(=O)[nH]c1=O (stereo not given),"inconclusive: 0.657 µM [inhibitor, partial curve, poor fit]",
COc1cc(C2C=C(Nc3ccccc3)C(=O)N2c2ccccc2)ccc1O (stereo not given),"inconclusive: 2.08 µM [inhibitor, single point]",
CS(=O)(=O)c1ccc(S(=O)(=O)N2CCC(CO)(CCCc3ccccc3)CC2)cc1,"inconclusive: 2.62 µM [inhibitor, full curve, poor fit]",
c1ccc(-c2nccc(-c3ccc(-n4cnc5ccccc54)cc3)n2)nc1,active: 4.15 µM,
C/C(N)=C(/C#N)C(=O)CSc1nnc(SCc2ccc(Cl)cc2)s1,,inactive: 44.9%
COc1c(C)cc(C(=O)C2CCCN(Cc3c(C)n(C)n(-c4ccccc4)c3=O)C2)cc1C (stereo not given),"inconclusive: 10.4 µM [inhibitor, single point]",
CCCCn1c(=O)[nH]c(=O)c2c1nc(-c1cc3c(cc1Br)OCO3)n2C,"inconclusive: 5.22 µM [inhibitor, partial curve, poor fit]",
c1ccc(C2(Cn3ccc4ccccc43)OCCO2)cc1,"inconclusive: 11.7 µM [inhibitor, single point]",
CN(C)[C@H]1C(=O)C(C(=O)NCN2CCCC2)=C(O)[C@]2(O)C(=O)C3=C(O)c4c(O)cccc4[C@](C)(O)[C@H]3C[C@H]12,"inconclusive: 19 µM [inhibitor, single point]",
CCCN1C(=O)/C(=C/c2ccc(OCC(=O)OCC)cc2)NC1=S,,inactive: -16.9%
CC(c1ccccc1)n1c(-c2cccs2)nc2c(c(=O)c3ccccc3n2C)c1=O (stereo not given),,inactive: -4.85%
O=C(CCn1c(=O)[nH]c2ccsc2c1=O)N(CCc1ccccc1)Cc1ccccc1,"inconclusive: 5.22 µM [inhibitor, partial curve, poor fit]",
CCN(CC)C(=O)/C(C#N)=C/c1cc(O)c(O)c([N+](=O)[O-])c1,"inconclusive: 9.53 µM [inhibitor, partial curve]",
CCOC(=O)C(O)(c1ccc(N=Cc2ccccc2O)c(C)c1)C(F)(F)F (stereo not given),,inactive: 8.1%
FC(F)Oc1ccc(NC(=S)NC2CCSc3ccccc32)cc1 (stereo not given),,inactive: -23.1%
Cc1ccccc1N1C(=O)C(Oc2ccc(Cl)cc2)C1CNCC1CCCO1 (stereo not given),"inconclusive: 0.0522 µM [inhibitor, full curve, poor fit]",
COc1cc2c(cc1OC)C1O[C@](c3ccsc3)(C2)OC2=C1C(=O)CC(C)(C)C2,"inconclusive: 0.0213 µM [inhibitor, full curve, poor fit]",
COc1ccc(C(=O)CC(=O)C(=O)Nc2ccc(C)c(C)c2)cc1,,inactive: 11.7%
Cc1n[nH]c(=O)n1-c1ccc(OCc2ccccc2)cc1,,inactive: -74.8%
Fc1ccc(Nc2nc(N3CCOCC3)c3ccccc3n2)cc1,"inconclusive: 10.4 µM [inhibitor, single point]",
O=C(NCC1CCCO1)c1onc(CSc2ccc(F)c(F)c2)c1C(=O)O (stereo not given),,inactive: 45%
